These are yes or no findings as the source states them, for the method shown.

Experimental findings from paper PMC6189638 are described below.

This assay concerns the target human soluble Epoxide Hydrolase C-terminal domain (hsEH CTD) (human) (UniProt P34913). Nature of the assay: SEC; HiLoad 16/600 Superdex 75pg; 137 mM NaCl, 2.7 mM KCl, 10 mM Na2HPO4, 3 mM KH2PO4, pH 7.4, 0.2 mM EDTA, 1 mM DTT, 5% glycerol; final purification step; both purified. (In general: Size exclusion chromatography separates by hydrodynamic size, large species first.)

B1: human soluble Epoxide Hydrolase C-terminal domain (hsEH CTD) (domain or fragment, UniProt P34913 230-555)
chain: TSCNPSDMSHGYVTVKPRVRLHFVELGSGPAVCLCHGFPESWYSWRYQIPALAQAGYRVLAMDMKGYGESSAPPEIEEYCMEVLCKEMVTFLDKLGLSQAVFIGHDWGGMLVWYMALFYPERVRAVASLNTPFIPANPNMSPLESIKANPVFDYQLYFQEPGVAEAELEQNLSRTFKSLFRASDESVLSMHKVCEAGGLFVNSPEEPSLSRMVTEEEIQFYVQQFKKSGFRGPLNWYRNMERNWKWACKSLGRKILIPALMVTAEKDFVLVPQMSQHMEDWIPHLKRGHIEDCGHWTQMDKPTEVNQILIKWLDSDARNPPVVSKM
For B1, the binding entry is reported as “no binding”.
